The results in this text go back to article PMC7923639.

Protein sequences, listed by entry. Tags and fused reporters are not part of them.
UniProt Q9NRC8: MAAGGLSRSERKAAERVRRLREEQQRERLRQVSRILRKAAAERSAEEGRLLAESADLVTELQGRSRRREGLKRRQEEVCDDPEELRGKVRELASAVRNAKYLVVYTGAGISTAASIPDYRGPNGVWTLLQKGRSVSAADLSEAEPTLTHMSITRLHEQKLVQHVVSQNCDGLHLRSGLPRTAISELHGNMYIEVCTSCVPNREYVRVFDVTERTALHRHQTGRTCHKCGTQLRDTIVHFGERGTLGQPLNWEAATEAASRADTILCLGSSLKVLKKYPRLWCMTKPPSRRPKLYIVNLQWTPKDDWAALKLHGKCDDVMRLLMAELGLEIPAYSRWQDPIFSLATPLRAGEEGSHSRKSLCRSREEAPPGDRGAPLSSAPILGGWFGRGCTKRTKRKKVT
UniProt Q9Y4B6: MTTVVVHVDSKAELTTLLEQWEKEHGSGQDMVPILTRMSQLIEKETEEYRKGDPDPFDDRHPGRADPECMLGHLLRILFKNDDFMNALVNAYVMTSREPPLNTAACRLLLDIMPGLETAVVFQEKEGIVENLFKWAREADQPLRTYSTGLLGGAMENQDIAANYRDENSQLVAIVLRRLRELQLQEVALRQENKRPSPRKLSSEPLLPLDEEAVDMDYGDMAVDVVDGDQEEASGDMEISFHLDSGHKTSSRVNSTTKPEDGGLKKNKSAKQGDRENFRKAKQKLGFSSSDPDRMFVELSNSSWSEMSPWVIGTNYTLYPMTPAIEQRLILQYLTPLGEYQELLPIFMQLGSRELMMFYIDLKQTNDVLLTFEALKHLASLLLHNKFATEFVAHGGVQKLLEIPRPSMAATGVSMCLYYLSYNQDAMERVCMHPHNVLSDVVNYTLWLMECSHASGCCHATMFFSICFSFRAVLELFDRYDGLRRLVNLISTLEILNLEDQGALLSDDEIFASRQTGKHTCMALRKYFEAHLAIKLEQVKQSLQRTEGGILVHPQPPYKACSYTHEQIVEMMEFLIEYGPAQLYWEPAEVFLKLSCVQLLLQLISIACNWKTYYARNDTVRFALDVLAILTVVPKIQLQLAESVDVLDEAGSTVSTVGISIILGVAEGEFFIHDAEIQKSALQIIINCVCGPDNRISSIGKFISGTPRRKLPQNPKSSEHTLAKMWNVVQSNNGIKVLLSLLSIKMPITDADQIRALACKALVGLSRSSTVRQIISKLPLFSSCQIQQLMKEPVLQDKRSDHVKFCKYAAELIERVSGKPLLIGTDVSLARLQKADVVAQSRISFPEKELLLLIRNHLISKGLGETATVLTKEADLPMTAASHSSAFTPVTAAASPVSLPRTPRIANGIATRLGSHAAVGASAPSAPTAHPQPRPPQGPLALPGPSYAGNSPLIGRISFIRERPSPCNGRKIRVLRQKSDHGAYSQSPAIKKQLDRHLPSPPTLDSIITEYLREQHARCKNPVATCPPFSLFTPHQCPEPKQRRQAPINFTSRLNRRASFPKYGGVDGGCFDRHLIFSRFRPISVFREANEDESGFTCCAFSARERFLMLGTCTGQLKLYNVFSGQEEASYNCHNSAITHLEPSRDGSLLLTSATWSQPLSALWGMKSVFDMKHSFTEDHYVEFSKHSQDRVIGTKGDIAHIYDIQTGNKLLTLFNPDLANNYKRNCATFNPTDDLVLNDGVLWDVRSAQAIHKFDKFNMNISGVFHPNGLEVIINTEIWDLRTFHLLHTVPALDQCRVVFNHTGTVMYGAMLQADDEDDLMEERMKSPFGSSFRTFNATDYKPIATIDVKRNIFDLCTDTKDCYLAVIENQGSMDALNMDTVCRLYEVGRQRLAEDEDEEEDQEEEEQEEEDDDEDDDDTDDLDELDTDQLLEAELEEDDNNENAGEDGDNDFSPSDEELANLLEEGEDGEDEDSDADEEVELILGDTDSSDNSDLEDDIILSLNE
UniProt Q16531: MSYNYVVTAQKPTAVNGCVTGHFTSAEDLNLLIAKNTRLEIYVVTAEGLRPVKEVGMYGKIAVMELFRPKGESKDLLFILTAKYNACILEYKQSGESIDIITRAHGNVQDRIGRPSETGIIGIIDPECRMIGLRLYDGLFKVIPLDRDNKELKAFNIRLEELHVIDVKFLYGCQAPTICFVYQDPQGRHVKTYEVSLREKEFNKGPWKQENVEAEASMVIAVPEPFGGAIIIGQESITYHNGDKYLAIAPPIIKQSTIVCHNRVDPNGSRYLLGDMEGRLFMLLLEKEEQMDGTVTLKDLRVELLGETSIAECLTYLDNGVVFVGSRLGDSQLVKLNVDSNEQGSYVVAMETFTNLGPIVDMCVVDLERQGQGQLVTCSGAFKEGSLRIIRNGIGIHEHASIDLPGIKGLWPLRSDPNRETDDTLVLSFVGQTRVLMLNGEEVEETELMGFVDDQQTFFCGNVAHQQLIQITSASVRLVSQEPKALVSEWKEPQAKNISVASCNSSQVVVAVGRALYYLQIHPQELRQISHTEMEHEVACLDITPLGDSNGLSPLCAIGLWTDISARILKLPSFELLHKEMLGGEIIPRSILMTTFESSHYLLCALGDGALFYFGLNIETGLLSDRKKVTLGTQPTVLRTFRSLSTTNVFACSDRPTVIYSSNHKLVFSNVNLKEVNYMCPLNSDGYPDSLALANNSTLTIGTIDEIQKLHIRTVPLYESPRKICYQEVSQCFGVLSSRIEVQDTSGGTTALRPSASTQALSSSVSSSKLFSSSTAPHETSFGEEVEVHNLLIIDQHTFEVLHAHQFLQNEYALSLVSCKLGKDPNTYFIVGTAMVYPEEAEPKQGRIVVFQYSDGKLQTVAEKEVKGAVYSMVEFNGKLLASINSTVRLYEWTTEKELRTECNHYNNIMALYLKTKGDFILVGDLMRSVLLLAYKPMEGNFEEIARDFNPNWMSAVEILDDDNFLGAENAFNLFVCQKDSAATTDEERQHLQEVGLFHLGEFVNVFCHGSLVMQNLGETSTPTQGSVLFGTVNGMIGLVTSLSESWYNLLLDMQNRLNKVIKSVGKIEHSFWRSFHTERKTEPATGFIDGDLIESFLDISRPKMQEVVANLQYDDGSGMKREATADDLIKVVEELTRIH

Test [1] concerns the target FLAG and HA-tagged SIRT7 (UniProt Q9NRC8). In words: co-IP; FLAG-SIRT7 as bait, co-expressed with DDB1 or with DDB1 and DCAF1 in HEK293T; anti-FLAG magnetic beads, 4 °C, 5 h; eluted with FLAG peptide; immunoblot (Fig. 1b). On the technique in general: A western blot detects proteins with antibodies after separation by electrophoresis.
Test [2] has the same target. In words: co-IP; FLAG-SIRT7 as bait, co-expressed with DDB1, DCAF1 and Vpr in HEK293T; anti-FLAG magnetic beads, 4 °C, 5 h; eluted with FLAG peptide; immunoblot (Fig. 1c).
In a further test the target is FLAG-tagged DCAF1 (UniProt Q9Y4B6). As to the kind of experiment: co-IP; FLAG-DCAF1 as bait; HEK293T co-transfected, 48 h; lysate (50 mM Tris, 150 mM NaCl, 0.5% NP-40, pH 7.5) with anti-FLAG magnetic beads, 4 °C, 5 h; eluted with FLAG peptide; immunoblot (Fig. 1a, Fig. 3b).

Results are given in words; binding and its absence hold for the method and conditions named. In cells and extracts the contact can be indirect. Some binding calls cover weakened binding; strength is not graded here.

Regarding “Myc and HA-tagged DDB1 (from UniProt Q16531 1-1140)”, the binding entry with FLAG and HA-tagged SIRT7 [1] is “binds”; in the test with FLAG and HA-tagged SIRT7 [2], “binds”.

Take “HA-tagged SIRT7 (from UniProt Q9NRC8 1-400)”: in the test with FLAG-tagged DCAF1, the binding entry is “binds”.

Regarding “HA-tagged DCAF1 (from UniProt Q9Y4B6 1-1507)”, the binding entry with FLAG and HA-tagged SIRT7 [1] is listed as “binds”; with FLAG and HA-tagged SIRT7 [2], “binds”.
